In PubChem BioAssay AID300 (DTP/NCI, 2004):
The list does not hold the whole screen: it gathers tests that were run many times, whatever their T/C, doses with no T/C, and many T/C values between a quarter and a half above the control. Further doses and runs are listed elsewhere. T/C is the treated group as % of the vehicle group. Some entries give survivors of the animals treated and no T/C: the source holds a T/C of zero for them, seemingly a mark for toxic or unscored doses. Some doses without a T/C left all or most animals alive at the check, yet need not have been tolerated: survival well below the control is almost never listed, so the zero probably covers shortened survival too. Counts of survivors are from the toxicity check (mostly the fifth day) where no day follows; animals may have died later. Schedules are NCI's codes, taken here to give the interval after Q, in days (D) or hours (H), and the number of doses after X. Where survival is the endpoint, the PubChem record calls one and a half times the control and up active, and a quarter to a half above the control has no call in these data; cut-offs in other NCI protocols can differ. Counts like (3×) say how often a value occurs here. Some entries hold several experiments; the values are given in rising order. Some T/C values carry the count of animals alive at the toxicity check (mostly the fifth day); without a count, all were alive then. *1 amine or outer side, *2 acyl side, *3 side chain or, on linkers, in order; H or OH if unused. Where a SMILES comes first, the peptide text is derived from it. Bridges are numbered along the chain shown (N, C = ends). Roman numbers before positions name the chains, in order. [ ]: non-standard residue; d: D form. Actinocin(9to1) = Cc1c2oc3c(C)ccc(C(=O)[*:1])c3nc-2c(C(=O)[*:2])c(N)c1=O; aThr = C[C@H](O)[C@H](N)C(=O)O; NMeV = CN[CH](C(=O)O)C(C)C; Sar = CNCC(=O)O

System: Madison 109 lung carcinoma i.m., mice, median survival
Experiment: NCI In Vivo Anticancer Drug Screen. Data for tumor model Madison 109 Lung Carcinoma (intramuscular) in unknown mice
Conditions: T/C endpoint: median survival time, higher T/C = longer survival
Description: The antitumor activity of compounds was measured in mice bearing transplantable tumors. Survival or tumor size were measured and the results are expressed as the measurement made in the treated group (T) divided by the measurement made in the vehicle treated control group (C). The tumor model used in this assay is Madison 109 Lung Carcinoma (intramuscular) in unknown mice

[1] = dose: 160.0 mg/kg/injection, schedule: Q02DX009 (ip), vehicle: water
[2] = dose: 20.0 mg/kg/injection, schedule: Q01DX009 (ip), vehicle: water
[3] = dose: 10.0 mg/kg/injection, schedule: Q02DX009 (ip), vehicle: water
[4] = dose: 20.0 mg/kg/injection, schedule: Q02DX009 (ip), vehicle: water
[5] = dose: 40.0 mg/kg/injection, schedule: Q02DX009 (ip), vehicle: water
[6] = dose: 80.0 mg/kg/injection, schedule: Q02DX009 (ip), vehicle: water

O=[N+]([O-])c1ccc([N+](=O)[O-])c(Cl)c1 was tested, and the T/C [1] was 130 % of control.

For S=P(N1CC1)(N1CC1)N1CC1, the survivor count (dose: 12.0 mg/kg/injection, schedule: Q01DX009 (ip), vehicle: water) was 8 of 8, the T/C [2] was 134 % of control and the survivor count (dose: 24.0 mg/kg/injection, schedule: Q01DX009 (ip), vehicle: water) was 8 of 8.

O=[N+]([O-])c1ccc(Cl)c([N+](=O)[O-])c1 was tested, and the T/C [3] was 132 % of control, the T/C [2] was 138 % of control and the T/C [4] was 138 % of control. For the same compound, the T/C [5] was 135 % of control, the T/C [6] was 135 % of control and the T/C [1] was 129 % of control.

With OC(CBr)C(O)C(O)C(O)CBr (centres undefined) the survivor count (dose: 200.0 mg/kg/injection, schedule: Q01DX009 (ip), vehicle: Klucel (hydroxypropylcellulose) (HPC)) was 8 of 8.

In the case of Cc1c2oc3c(C)ccc(C(=O)NC4C(=O)NC(C(C)C)C(=O)N5CCCC5C(=O)N(C)CC(=O)N(C)C(C(C)C)C(=O)OC4C)c3nc-2c(C(=O)NC2C(=O)NC(C(C)C)C(=O)N3CCCC3C(=O)N(C)CC(=O)N(C)C(C(C)C)C(=O)OC2C)c(N)c1=O (centres undefined) (I: TVP[Sar][NMeV] / II: TVP[Sar][NMeV]; ester I:1-I:C, II:1-II:C; linker I:N-II:N via Actinocin(9to1); configuration not given here), the T/C (dose: 0.44 mg/kg/injection, schedule: Q01DX009 (ip), vehicle: water, evaluated on day 5) is reported as 139 % of control, the T/C (dose: 0.44 mg/kg/injection, schedule: Q01DX009 (ip), vehicle: water, evaluated on day 66) is reported as 139 % of control and the T/C (dose: 0.66 mg/kg/injection, schedule: Q01DX009 (ip), vehicle: water, evaluated on day 5) is reported as 127 % of control. The T/C (dose: 0.66 mg/kg/injection, schedule: Q01DX009 (ip), vehicle: water, evaluated on day 66) was 127 % of control, the T/C (dose: 0.96 mg/kg/injection, schedule: Q01DX009 (ip), vehicle: water, evaluated on day 5) was 140 % of control and the T/C (dose: 0.96 mg/kg/injection, schedule: Q01DX009 (ip), vehicle: water, evaluated on day 66) was 140 % of control. The T/C (dose: 1.26 mg/kg/injection, schedule: Q01DX009 (ip), vehicle: water, evaluated on day 5) was 134 % of control and the T/C (dose: 1.26 mg/kg/injection, schedule: Q01DX009 (ip), vehicle: water, evaluated on day 66) was 134 % of control.

With CC1OC(O[C@H]2/C=C/C=C/C=C/C=C/C=C/C=C/C=C/[C@H](C)[C@@H](O)[C@@H](C)[C@H](C)OC(=O)C[C@H](O)C[C@H](O)CC[C@@H](O)[C@H](O)C[C@H](O)C[C@]3(O)C[C@H](O)[C@@H](C(=O)O)[C@H](C2)O3)C(O)C(N)C1O (some centres undefined) the survivor count (dose: 12.5 mg/kg/injection, schedule: Q01DX009 (ip), vehicle: DMSO) was 1 of 8, the survivor count (dose: 25.0 mg/kg/injection, schedule: Q01DX009 (ip), vehicle: DMSO) was 0 of 8 and the survivor count (dose: 50.0 mg/kg/injection, schedule: Q01DX009 (ip), vehicle: DMSO) was 0 of 8. The survivor count (dose: 100.0 mg/kg/injection, schedule: Q01DX009 (ip), vehicle: DMSO) was 0 of 8.

For Cc1c2oc3c(C)ccc(C(=O)N[C@@H]4C(=O)N[C@H](C(C)C)C(=O)N5CCC[C@H]5C(=O)N(C)CC(=O)N(C)[C@@H](C(C)C)C(=O)O[C@H]4C)c3nc-2c(C(=O)N[C@@H]2C(=O)N[C@H](C(C)C)C(=O)N3CCC[C@H]3C(=O)N(C)CC(=O)N(C)[C@@H](C(C)C)C(=O)O[C@H]2C)c(N)c1=O (I: [aThr][dV]P[Sar][NMeV] / II: [aThr][dV]P[Sar][NMeV]; ester I:1-I:C, II:1-II:C; linker I:N-II:N via Actinocin(9to1)), the T/C (dose: 0.02 mg/kg/injection, schedule: Q01DX009 (ip), vehicle: water, evaluated on day 5) was 108 and 120 % of control, the T/C (dose: 0.02 mg/kg/injection, schedule: Q01DX009 (ip), vehicle: water, evaluated on day 57) was 108 % of control and the T/C (dose: 0.02 mg/kg/injection, schedule: Q01DX009 (ip), vehicle: water, evaluated on day 66) was 120 % of control. The T/C (dose: 0.02 mg/kg/injection, schedule: Q01DX009 (ip), vehicle: water, evaluated on day 68) was 98 % of control, the T/C (dose: 0.03 mg/kg/injection, schedule: Q01DX009 (ip), vehicle: water, evaluated on day 5) was 102 and 112 % of control and the T/C (dose: 0.03 mg/kg/injection, schedule: Q01DX009 (ip), vehicle: water, evaluated on day 57) was 102 % of control. For the same compound, the T/C (dose: 0.03 mg/kg/injection, schedule: Q01DX009 (ip), vehicle: water, evaluated on day 64) was 121 % of control, the T/C (dose: 0.03 mg/kg/injection, schedule: Q01DX009 (ip), vehicle: water, evaluated on day 66) was 112 % of control and the T/C (dose: 0.03 mg/kg/injection, schedule: Q01DX009 (ip), vehicle: water, evaluated on day 68) was 109 % of control [7 of 8 alive]. The T/C (dose: 0.04 mg/kg/injection, schedule: Q01DX009 (ip), vehicle: water, evaluated on day 5) was 118 and 123 % of control, the T/C (dose: 0.04 mg/kg/injection, schedule: Q01DX009 (ip), vehicle: water, evaluated on day 57) was 123 % of control and the T/C (dose: 0.04 mg/kg/injection, schedule: Q01DX009 (ip), vehicle: water, evaluated on day 64) was 119 % of control. For the same compound, the T/C (dose: 0.04 mg/kg/injection, schedule: Q01DX009 (ip), vehicle: water, evaluated on day 66) was 118 % of control, the T/C (dose: 0.04 mg/kg/injection, schedule: Q01DX009 (ip), vehicle: water, evaluated on day 68) was 91 % of control and the T/C (dose: 0.04 mg/kg/injection, schedule: Q01DX009 (ip), vehicle: water, evaluated on day 78) was 116 % of control. The T/C (dose: 0.05 mg/kg/injection, schedule: Q01DX009 (ip), vehicle: water, evaluated on day 5) was 129 and 134 % of control, the T/C (dose: 0.05 mg/kg/injection, schedule: Q01DX009 (ip), vehicle: water, evaluated on day 57) was 129 % of control and the T/C (dose: 0.05 mg/kg/injection, schedule: Q01DX009 (ip), vehicle: water, evaluated on day 64) was 115 % of control. The T/C (dose: 0.05 mg/kg/injection, schedule: Q01DX009 (ip), vehicle: water, evaluated on day 66) was 134 % of control, the T/C (dose: 0.05 mg/kg/injection, schedule: Q01DX009 (ip), vehicle: water, evaluated on day 68) was 106 % of control and the T/C (dose: 0.05 mg/kg/injection, schedule: Q01DX009 (ip), vehicle: water, evaluated on day 78) was 135 % of control. For the same compound, the T/C (dose: 0.06 mg/kg/injection, schedule: Q01DX009 (ip), vehicle: water, evaluated on day 5) was 106 and 123 % of control, the T/C (dose: 0.06 mg/kg/injection, schedule: Q01DX009 (ip), vehicle: water, evaluated on day 57) was 123 % of control and the T/C (dose: 0.06 mg/kg/injection, schedule: Q01DX009 (ip), vehicle: water, evaluated on day 64) was 118 % of control. The T/C (dose: 0.06 mg/kg/injection, schedule: Q01DX009 (ip), vehicle: water, evaluated on day 66) was 106 % of control, the survivor count (dose: 0.06 mg/kg/injection, schedule: Q01DX009 (ip), vehicle: water) was 10 of 10 and the T/C (dose: 0.08 mg/kg/injection, schedule: Q03DX009 (ip), vehicle: water) was 136 % of control. The T/C (dose: 0.1 mg/kg/injection, schedule: Q02DX009 (ip), vehicle: water) was 136 % of control, the survivor count (dose: 0.1 mg/kg/injection, schedule: Q03DX009 (ip), vehicle: water) was 8 of 8 and the survivor count (dose: 0.12 mg/kg/injection, schedule: Q03DX009 (ip), vehicle: water) was 8 of 8. For the same compound, the survivor count (dose: 0.12 mg/kg/injection, schedule: Q04DX009 (ip), vehicle: water) was 8 of 8, the survivor count (dose: 0.14 mg/kg/injection, schedule: Q03DX009 (ip), vehicle: water) was 8 of 8 and the survivor count (dose: 0.16 mg/kg/injection, schedule: Q04DX009 (ip), vehicle: water) was 8 of 8. For the same compound, the survivor count (dose: 0.2 mg/kg/injection, schedule: Q04DX009 (ip), vehicle: water) was 8 of 8, the survivor count (dose: 0.6 mg/kg/injection, schedule: Q01DX001 (ip), vehicle: water) was 8 of 8 and the survivor count (dose: 0.8 mg/kg/injection, schedule: Q01DX001 (ip), vehicle: water) was 5 of 8.

O=[N+]([O-])c1cccc([N+](=O)[O-])c1Cl was tested, and the T/C [3] was 132 % of control, the T/C [4] was 128 % of control and the T/C [5] was 129 % of control (2×). For the same compound, the T/C [6] was 132 % of control.

For CC[C@H]1CN2CCc3cc(OC)c(OC)cc3[C@@H]2C[C@@H]1C[C@H]1NCCc2cc(OC)c(OC)cc21, the survivor count (dose: 1.0 mg/kg/injection, schedule: Q01DX009 (ip), vehicle: water) was 5 of 8.
